Reference: article PMC9788671
These are yes or no findings as the source states them, for the method shown. In cells and extracts the contact can be indirect. Here binding means that the protein was enriched with, or labelled near, the bait; the list need not be complete.

By UniProt entry, the sequences of proteins in these tests, tags left out.
UniProt Q9NZV8: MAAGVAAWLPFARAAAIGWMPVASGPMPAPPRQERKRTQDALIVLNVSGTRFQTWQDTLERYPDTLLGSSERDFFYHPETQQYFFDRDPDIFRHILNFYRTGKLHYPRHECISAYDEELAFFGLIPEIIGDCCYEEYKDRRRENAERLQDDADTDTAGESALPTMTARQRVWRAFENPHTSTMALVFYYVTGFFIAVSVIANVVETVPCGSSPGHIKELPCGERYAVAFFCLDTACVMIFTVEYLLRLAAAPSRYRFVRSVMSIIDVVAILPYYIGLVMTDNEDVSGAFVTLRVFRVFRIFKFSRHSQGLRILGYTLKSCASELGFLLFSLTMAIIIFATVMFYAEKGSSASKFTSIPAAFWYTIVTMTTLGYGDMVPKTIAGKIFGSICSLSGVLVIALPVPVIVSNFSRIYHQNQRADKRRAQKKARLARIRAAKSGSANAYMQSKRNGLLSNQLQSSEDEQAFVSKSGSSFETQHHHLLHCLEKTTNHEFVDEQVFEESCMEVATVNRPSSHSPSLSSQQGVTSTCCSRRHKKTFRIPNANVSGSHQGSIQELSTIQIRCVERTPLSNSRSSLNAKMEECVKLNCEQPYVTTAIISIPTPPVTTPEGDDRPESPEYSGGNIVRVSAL

Target: TAP-Kv4.2 (human) (UniProt Q9NZV8)
Assay: affinity purification with mass spectrometry; TAP-Kv4.2 expressed by lentivirus in rat hippocampal neurons, harvested at DIV14; weak lysis buffer of the kit (0.1% NP-40); streptavidin resin, then calmodulin resin; gel cut into high and low molecular weight fragments; no MS of the control sample

| Binder | binding |
| --- | --- |
| Atad3 (protein, UniProt Q3KRE0 1-591) MSWLFGIKGPKGEGTGPPLPLPPAQPGAESGGDRGAGDRPSPKDKWSNFDPTGLERAAKAARELEHSRHAKEALNLAQMQEQTLQLEQQSKLKEYEAAVEQLKSEQIRVQAEERRKTLNEETRQHQARAQYQDKLARQRYEDQLKQQQLLNEENLRKQEESVQKQEAIRRATVEREMELRHKNEMLRVEAEARARAKADRENADIIREQIRLKAAEHRQTILESIRTAGTLFGEGFRAFVTDWDKVTATVAGLTLLAVGVYSAKNATSVAGRYIEARLGKPSLVRETSRISVLEALRHPIQVSRRLVSRPQDALEGVILSPSLEARVRDIAIATRNTKKNKSLYRNVLMYGPPGTGKTLFAKKLALHSGMDYAIMTGGDVAPMGREGVTAMHKVFDWASTSRRGLLLFVDEADAFLRKRATEKISEDLRATLNAFLHRTGQHSNKFMLVLASNQPEQFDWAINDRIDEMVCFALPQREERERLVRMYFDKYVLKPATEGKQRLKVAQFDYGKKCSEVAQLTAGMSGREIAQLAVAWQAMAYSSEDGVLTEAMMDARVQDAVQQHQQKMQWLKVERPDSEASKPPHPSLLSC | binds |
| Mogs (protein, UniProt O88941 1-834) MARGERRRRAAAAEGARPLERARGAGRRDGRAGGARGSAGGAALAVVVLALAFGLSGRWVLAWLGVRRALTLHPAPSALPPDSSSPAVAPEFFWGTYRPHVYFGMKTRSPKPLLTGLMWAQQGATPGTPPKLRHTCEQGDGVGPYGWEFHDGLSFGRQHIYDGALRLTTEFVKRSGGHHGGDWSWRVTVEPQASGTPSFPLVSLFFYVVTDGQEVLLPEVGAKGQLKFISGHTSELGDFRLTLLPPTTPGDTVPKHGSYNVFWSSNPGLPLLTDMVKSHLNSWFHHRPPGASPERYLGLPGSLKWEERGPSGQGQFLVQQVTLKAPFSVEFVFESGSARTGRDQASEQLVGGQLTRALESHAAAFKERFERTFQLKEKGLSPEEQALGQVALSGLLGGIGYFYGQGLVLPDTGMEGSEQKMDPSLFPPVPLFSGVPSRSFFPRGFLWDEGFHQLVVQRWDPHLTREALGHWLGLLNADGWIGREQILGDEARARVPPEFLVQRAAHANPPTLLLPVIHMLEGRAPEDLAFLRRAFPRLHAWFSWLHQSQAGPVPLSYRWRGRDLALPTLLNPKTLPSGLDDYPRASHPSAAERHLDLRCWVTLGARVLSQLAEELGETEAAAELGPLAASLEAAGSLDELHWAPELGVFADFGNHTKAVQLKSRPPQGLVRVVGRPPARLQYVDALGYVSLFPLLLQLLEPSSPRLGPLLDVLADSRHLWSPFGLRSLSASSLFYKQRNTEHDPPYWRGAVWLNINYLALGALHHYGRVEGPHKVQAAKLYRELRANVVSNVRQQYQATGFLWEQYSDQDGRGMGCRPFQGWTSLVLLIMAEEY | binds |
| Ddx1 (protein, UniProt Q641Y8 1-740) MAAFSEMGVMPEIAQAVEEMDWLLPTDIQAESIPLILGGGDVLMAAETGSGKTGAFSIPVIQIVYETLKDQQEGKKGKATIKTGASVLNKWQMNPYDRGSAFAIGSDGLCCQSREVKEWHGCRATRGLLRGKHYYEVSCHDQGLCRVGWSTMQASLDLGTDKFGFGFGGTGKKSHNKQFDNYGEEFTMHDTIGCYLDIDKGHVKFSKNGKDLGLAFEIPAHIKNQALFPACVLKNAELKFNFGEEEFKFPPKDGFVALSKAPDSYVVKSQHTGNAQVSQTKFLPNAPKALIVEPSRELAEQTLNNVKQFKKYIDNPKLRELLIIGGVAARDQLSVLDNGVDIVVGTPGRLDDLVSTGKLNLSQVRFLVLDEADGLLSQGYSDFINRMHNQIPQITSDGKRLQVIVCSATLHSFDVKKLSEKIMHFPTWVDLKGEDSVPDTVHHVVVPVNPKTDRLWERLGKNHIRTDDVHAKDNTRPGANSPEMWSEAIKILKGEYAVRAIKEHKMDQAIIFCRTKIDCDNLEQYFMQQGGGPDKKGHQFSCVCLHGDRKPHERKQNLERFKKGDVRFLICTDVAARGIDIHGVPYVINVTLPDEKQNYVHRIGRVGRAERMGLAISLVATEKEKVWYHVCSNRGKGCYNTRLKEDGGCTIWYNEMQLLSEIEEHLNCTISQVEPDIKVPVDEFDGKVTYGQKRAAGGGNYKGHVDILAPTVQELAALEKEAQTSFLHLGYLPNQLFRTF | binds |

Second part, the binder after the results:

| binding | Binder |
| --- | --- |
| binds | Slc1a3 (protein, UniProt P24942 1-543) MTKSNGEEPRMGSRMERFQQGVRKRTLLAKKKVQNITKEDVKSYLFRNAFVLLTVSAVIVGTILGFALRPYKMSYREVKYFSFPGELLMRMLQMLVLPLIISSLVTGMAALDSKASGKMGMRAVVYYMTTTIIAVVIGIIIVIIIHPGKGTKENMYREGKIVQVTAADAFLDLIRNMFPPNLVEACFKQFKTSYEKRSFKVPIQANETLLGAVINNVSEAMETLTRIREEMVPVPGSVNGVNALGLVVFSMCFGFVIGNMKEQGQALREFFDSLNEAIMRLVAVIMWYAPLGILFLIAGKILEMEDMGVIGGQLAMYTVTVIVGLLIHAVIVLPLLYFLVTRKNPWVFIGGLLQALITALGTSSSSATLPITFKCLEENNGVDKRITRFVLPVGATINMDGTALYEALAAIFIAQVNNFDLNFGQIITISITATAASIGAAGIPQAGLVTMVIVLTSVGLPTDDITLIIAVDWFLDRLRTTTNVLGDSLGAGIVEHLSRHELKNRDVEMGNSVIEENEMKKPYQLIAQDNEPEKPVADSETKM |
| binds | Rpn1 (protein, UniProt P07153 23-605) SSEAPPLVNEDVKRTVDLSSHLAKVTAEVVLAHPGGGSTARASSFVLALEPELESRLAHLGVQVKGEDEEDNNLEVRETKMKGKSGRFFTVKLPVALDPGSKISIVVETVYTHVLHPYPTQITQSEKQFVVFEGNHYFYSPYPTKTQTMRVRLASRNVESHTKLGNPSRSEDILDYGPFKDIPAYSQDTFKVHYENNSPFLTITSMTRVIEVSHWGNIAVEENVDLKHTGAVLKGPFSRYDYQRQPDSGISSIRSFKTILPAAAQDVYYRDEIGNVSTSHLLILDDSVEMEIRPRFGLFGGWKTHYIVGYNLPSYEYLYNLGDQYALKMRFVDHVFDEQVIDSLTVKIILPEGAKNIQVDSPYDISRAPDELHYTYLDTFGRPVIVAYKKNLVEQHIQDIVVHYTFNKVLMLQEPLLVVAAFYILFFTVIIYVRLDFSITKDPAAEARMKVACITEQVLTLVNKRLGLYRHFDETVNRYKQSRDISTLNSGKKSLETEHKAVTSEIAVLQSRLKTEGSDLCDRVSEMQKLDAQVKELVLKSAVEAERLVAGKLKKDTYIENEKLSSGKRQELVTKIDHILDAL |

Target: TAP-Kv4.2 (human) (UniProt Q9NZV8)
Assay: affinity purification with mass spectrometry; TAP-Kv4.2 expressed by lentivirus in rat hippocampal neurons, harvested at DIV14; strong lysis buffer (1% Triton X-100, 0.5% deoxycholate in PBS, pH 7.4); streptavidin resin, then calmodulin resin; gel cut into high and low molecular weight fragments; no MS of the control sample

| binding | Binder |
| --- | --- |
| binds | Ylpm1 (protein, UniProt P0CB49 1-1376) MYPNWGRYGGSSHYPPPPVPPPPPPVALPEASPGPGYSSSTAPAAPSSSGFMSFREQHLAQLQQLQQMHQKQMQCVLQPHHLPPPPLPPPPVMPGGGYGDWQPPPPPMPPPPGPALSYQKQQQYKHQMIHHQRDGPPGLVPMELESPPESPPVPPGSYMPPSQSYMPPPQPPPSYYPPSSAQPYLPPAQPSPSKPQLPPPPPSIPSGNKTTIQQEPLETGAKNKNAEQKQAAPEPDPSTMTPQEQQQYWYRQHLLSLQQRTKVHLPGHKKGLVTAKDVPEPIKEEAPVPATSQIAEPLAAEEPPLPPPNEEMPPPLPPEEPQNNSSEMSEDPEEDARLKQLQAAAAHWQQHQQHRVGFQYQGIMQRHTQLQQILQQYQQVIQHSPHIQTMSLDVQLRHYEMQQQQFQRLYQEWEREFQLWEEQLHSYPHKDQLEEYEKQWKSWQGHMRATQTYLQEKVTSFQAVKNQYMGNMAMPPPFVPYSQMPPPLPTMPPPVLPPSLPPPVMPPALPSTIPPPGMPPPVMPPSLPTSVPPPGMPPSLSSAVLPPPSLSSAGPPPVLPPPSLSGAPPVLPLPPLSSATPPPGIPPPGVPQGMPPQLTAPVPPASSSQNSQVPEKPRQALLPTPVSFGSTPPSPYHPPPQSEQGNSKPLNKVFSSEQGLGESSSALSQSVIAAKDTPVKSGGLLADPPKGSFLEGPRGPREQKEQLQKLKDFGSEPQTADHLPPPDSRLQNTSRPGMYPPPGSYRPPPPMGKPPGSIVRPSAPPARSCVPMTRPPVPIPPPPPPPPPPPPPPPVIKPKTSSVKQERWDEDSFFGLWDTNDDQGLNSEFKRDTAAIPSAPVLPPPPVHPSIPPPGPMPMGMPPMSKPPPVQHTVDYGHGRDMPTNKVEQIPYGERITLRPDPLPERSAFDADHAGQRDRYDRDRDREPYFDRQSNMTDHRDFKRDRETHRDRDRVLDYERDRFDRERRPRDDRNQSYRDKKDHSSSRRGGFDRPSYDRKSDRPPYEGPPMFGGERRTYPEERMPLPAPSLGHQPPPVPRVEKKPESKNVDDILKPPGRESRPERIVVIMRGLPGSGKTHVAKLIRDKEVEFGGPAPRVLSLDDYFIAEVEKEEKDPDSGKKVKKKVMEYEYEADMEETYRTSMFKTFKKTLDDGFFPFIILDAINDRVRHFDQFWSAAKTKGFEVYLAEMSADNQTCGKRNIHGRKLKEINKMAEHWEAAPRHMMRLDIRSLLQDAAIEEVEMEDFDANIEDQKEEKKDAEEEESELGYIPKSKWEMDTSEAKLDKLDGLRTGTKRKRDWEAIASRMEDYLQLPDDYETRASEPGKKRVRWADLEEKKDADRKRAIGFVVGQTDWEKITDESGHLAERALNRTKYI |
